Assay results from paper PMC11015022.
No constants are given. Whether binding was seen depends on the method and setting. Binding seen in cells or lysates may run through a third protein. Here binding means that the protein was enriched with, or labelled near, the bait; the list need not be complete.

Chains of the proteins cited; added tags and fusions are not shown.
UniProt P63017: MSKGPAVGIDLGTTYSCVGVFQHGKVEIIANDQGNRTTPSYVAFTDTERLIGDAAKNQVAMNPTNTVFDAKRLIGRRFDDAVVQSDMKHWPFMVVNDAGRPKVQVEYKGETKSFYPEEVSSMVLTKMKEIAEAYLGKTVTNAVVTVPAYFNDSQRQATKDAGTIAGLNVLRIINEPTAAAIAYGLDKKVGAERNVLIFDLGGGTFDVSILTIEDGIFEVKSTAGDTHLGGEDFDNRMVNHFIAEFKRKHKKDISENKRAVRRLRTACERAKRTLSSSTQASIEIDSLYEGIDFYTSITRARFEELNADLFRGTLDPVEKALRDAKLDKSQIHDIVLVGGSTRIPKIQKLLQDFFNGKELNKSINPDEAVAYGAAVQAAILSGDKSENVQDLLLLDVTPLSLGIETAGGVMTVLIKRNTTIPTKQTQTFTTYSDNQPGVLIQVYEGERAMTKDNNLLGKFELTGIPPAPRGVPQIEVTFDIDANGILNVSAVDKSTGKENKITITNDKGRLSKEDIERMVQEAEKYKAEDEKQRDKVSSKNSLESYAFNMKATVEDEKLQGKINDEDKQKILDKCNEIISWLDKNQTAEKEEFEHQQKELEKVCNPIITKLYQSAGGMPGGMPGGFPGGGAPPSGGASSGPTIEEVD
UniProt P51807: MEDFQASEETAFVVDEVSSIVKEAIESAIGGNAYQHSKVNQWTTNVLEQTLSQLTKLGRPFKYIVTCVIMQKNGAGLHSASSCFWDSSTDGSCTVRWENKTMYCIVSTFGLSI
UniProt Q99104: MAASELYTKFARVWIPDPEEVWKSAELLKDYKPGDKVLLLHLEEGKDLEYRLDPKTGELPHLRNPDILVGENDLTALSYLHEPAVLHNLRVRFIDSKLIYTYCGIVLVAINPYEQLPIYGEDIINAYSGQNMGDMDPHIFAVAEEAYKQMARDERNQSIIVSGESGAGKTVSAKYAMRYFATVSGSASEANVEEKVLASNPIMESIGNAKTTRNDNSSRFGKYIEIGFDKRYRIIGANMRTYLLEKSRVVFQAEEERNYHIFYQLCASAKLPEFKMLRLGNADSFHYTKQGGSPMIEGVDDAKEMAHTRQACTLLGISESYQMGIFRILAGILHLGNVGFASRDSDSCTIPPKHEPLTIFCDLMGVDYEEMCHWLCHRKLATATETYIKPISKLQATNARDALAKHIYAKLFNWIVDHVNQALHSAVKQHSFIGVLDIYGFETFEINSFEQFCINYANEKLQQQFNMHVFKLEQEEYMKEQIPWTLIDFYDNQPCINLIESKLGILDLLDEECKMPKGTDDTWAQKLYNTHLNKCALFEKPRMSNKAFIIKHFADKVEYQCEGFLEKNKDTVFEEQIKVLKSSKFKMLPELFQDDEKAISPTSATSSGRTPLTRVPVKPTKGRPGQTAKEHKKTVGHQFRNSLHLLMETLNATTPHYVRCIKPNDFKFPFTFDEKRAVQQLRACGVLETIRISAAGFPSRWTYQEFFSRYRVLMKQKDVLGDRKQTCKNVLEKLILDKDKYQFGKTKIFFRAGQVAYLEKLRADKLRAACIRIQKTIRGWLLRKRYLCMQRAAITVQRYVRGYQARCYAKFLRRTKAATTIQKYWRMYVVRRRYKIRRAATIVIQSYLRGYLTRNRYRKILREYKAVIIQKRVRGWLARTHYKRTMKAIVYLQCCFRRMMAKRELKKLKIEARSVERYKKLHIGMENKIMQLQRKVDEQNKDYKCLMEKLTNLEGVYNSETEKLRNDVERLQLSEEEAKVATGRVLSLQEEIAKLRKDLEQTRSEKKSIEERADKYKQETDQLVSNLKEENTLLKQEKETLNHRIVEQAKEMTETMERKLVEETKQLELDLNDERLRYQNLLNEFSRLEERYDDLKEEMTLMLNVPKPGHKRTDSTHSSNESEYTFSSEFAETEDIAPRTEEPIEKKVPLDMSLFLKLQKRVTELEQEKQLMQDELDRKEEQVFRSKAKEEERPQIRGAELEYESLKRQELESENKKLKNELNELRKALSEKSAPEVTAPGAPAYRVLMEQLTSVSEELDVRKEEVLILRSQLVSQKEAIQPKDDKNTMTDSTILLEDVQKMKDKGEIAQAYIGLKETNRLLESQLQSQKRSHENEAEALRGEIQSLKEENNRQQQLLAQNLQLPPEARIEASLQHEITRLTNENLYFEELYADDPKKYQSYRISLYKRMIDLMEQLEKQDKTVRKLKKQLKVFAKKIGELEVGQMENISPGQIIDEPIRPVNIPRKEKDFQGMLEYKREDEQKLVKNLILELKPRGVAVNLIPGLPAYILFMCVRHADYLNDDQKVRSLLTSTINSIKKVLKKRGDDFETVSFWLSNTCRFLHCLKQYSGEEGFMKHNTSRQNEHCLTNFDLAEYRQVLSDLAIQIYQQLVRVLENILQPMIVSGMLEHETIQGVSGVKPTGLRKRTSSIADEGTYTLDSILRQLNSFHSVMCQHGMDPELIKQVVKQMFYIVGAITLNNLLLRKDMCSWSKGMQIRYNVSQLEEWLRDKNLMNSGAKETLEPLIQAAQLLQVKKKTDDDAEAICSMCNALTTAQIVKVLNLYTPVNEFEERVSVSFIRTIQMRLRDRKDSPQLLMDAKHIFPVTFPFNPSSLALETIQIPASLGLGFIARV

Experiments:
[1] = biological target: HSPA8 (heat shock cognate 70 kDa protein) (mouse (endogenous in mouse testis)) (UniProt P63017); test: affinity purification with mass spectrometry; IP with HSPA8 antibody from mouse testis lysate, LC-MS
[2] = biological target: T1, BAG5 (mouse (endogenous in mouse testis)) (UniProt Q8CI32); test: affinity purification with mass spectrometry; IP with BAG5 antibody from adult WT mouse testis lysate, LC-MS; Bag5 KO testes as negative control
T1 sequence: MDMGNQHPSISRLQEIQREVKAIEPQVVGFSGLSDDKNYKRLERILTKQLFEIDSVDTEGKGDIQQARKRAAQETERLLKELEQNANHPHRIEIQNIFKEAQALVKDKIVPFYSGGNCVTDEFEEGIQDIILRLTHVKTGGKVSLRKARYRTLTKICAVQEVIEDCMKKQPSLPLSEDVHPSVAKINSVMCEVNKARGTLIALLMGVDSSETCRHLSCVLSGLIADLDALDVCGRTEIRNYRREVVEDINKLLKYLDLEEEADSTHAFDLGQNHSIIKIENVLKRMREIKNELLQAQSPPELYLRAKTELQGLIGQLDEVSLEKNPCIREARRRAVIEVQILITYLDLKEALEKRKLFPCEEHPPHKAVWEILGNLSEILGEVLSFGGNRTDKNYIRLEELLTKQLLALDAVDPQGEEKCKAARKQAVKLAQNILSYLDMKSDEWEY

binding [1]	binding [2]	Substance
binds	binds	DYNLT1 (from UniProt P51807 1-113)
binds	binds	MYO5A (from UniProt Q99104 1-1853)
